# Source: article PMC12040169 (PLOS Biology, 2025)
# The list shows a part of the results.
# Tested on: T1, CTL2-GFP (C. trachomatis L2/434/Bu, GFP-expressing)
# T1 construct: L2/434/Bu, GFP-expressing
# Set-up: species or system HeLa; Intracellular C. trachomatis growth in HeLa cells, bulk GFP fluorescence relative to DMSO
# Settings: bulk GFP, single well; 28.5 h, 10 µM; inhibitor
row,SMILES,% of control remaining
1,O=C1CCC(=O)N1CCOc1nccnc1OC1CCN(Cc2ccccc2-c2ccccc2)CC1 [CBK084344],112.796%
2,O=C(Nc1cnc(-c2ccc(F)c(Cl)c2)c(-c2cccnc2)n1)c1ccc(N2CCCC2=O)cc1 [CBK036794],100.869%
3,Cc1nc(C)c(CCC(=O)N2CCCCC2Cn2cccn2)c(=O)[nH]1 (centres unmarked) [CBK305310],135.28%
4,CC1(C)CC(=O)c2sc(NC(=O)c3ccc(Oc4ccccc4)cc3)nc2C1 [CBK144106],95.99%
5,COc1ccc(Nc2nc(N)nc(CN3CC(C)CC(C)C3)n2)cc1 (centres unmarked) [CBK288154],100.905%
6,Cc1cc(OCCCNCCO)ccc1Cl [CBK262230],119.652%
7,CC(=O)Nc1ccc(OCC(O)Cn2cnc3cc(C)c(C)cc32)cc1 (centres unmarked) [CBK304545],115.452%
8,CCn1cc(-c2cncn2CCOc2ccc(Cl)cc2)cn1 [CBK281776],152.203%
9,CCOC(=O)C1(C2CCCCC2)CCN(C(=O)Cc2ccc(Cl)c(Cl)c2)CC1 [CBK136922],124.441%
10,CCC(CN1CCOCC1)NC(=O)Cc1coc2c(C)c(C)ccc12 (centres unmarked) [CBK282813],130.972%
11,COc1cc(C)c(Nc2cc(-c3ccc(CC(C)C)cc3)ncn2)cc1OC [CBK090785],119.244%
12,N#Cc1cc(Nc2ccc(Cc3ccncc3)cc2)c([N+](=O)[O-])cc1C#N [CBK264090],129.859%
13,CCCc1nnc(NC(=O)CN2CCc3c(c(CO)nn3C)C2)s1 [CBK307172],133.934%
14,CC1CN(Cc2nc3c(c(=O)n(C)c(=O)n3C)n2CCCO)CC(C)O1 (centres unmarked) [CBK269298],131.402%
15,CN(C)C(=O)[C@H]1CC[C@]2(CC1)CNC(=O)c1ccccc1O2 [CBK284894],141.439%
16,CCOc1ccc(-c2n[nH]c(C)c2-c2ccc(OC)c(OC)c2)c(O)c1 [CBK288106],116.607%
17,c1csc(-c2nccnc2OC2CCCCC2)c1 [CBK107060],117.88%
18,O=C(Nc1ncn(CC(=O)N2CCCCCC2)n1)c1ccsc1 [CBK304974],112.765%
19,c1ccc(CCN2CCN(Cc3ncc[nH]3)CC2)cc1 [CBK138328],78.3517%
20,CCCc1ccc(S(=O)(=O)Nc2ccc(C(=O)O)cc2)cc1 [CBK034044],87.5218%
21,O=C(CCC(=O)c1ccc2c(c1)OCCO2)OCC(=O)c1ccc(F)cc1 [CBK264679],112.988%
22,O=C(NC[C@H]1CC[C@H](C(=O)O)CC1)c1cc2ccccc2[nH]1 [CBK287069],102.381%
23,COc1ccccc1-n1c(C)c(C(C)=O)c2cc(O)ccc21 [CBK115320],106.428%
24,CNC(=O)C1(Cc2ccccc2-c2cccs2)CCN(C(=O)COc2ccccc2)CC1 [CBK285684],103.506%
25,Cc1ccc(OCC(=O)N2CCN(S(=O)(=O)c3ccc4ccccc4c3)CC2)cc1 [CBK264200],111.967%
26,O=C(c1ccccc1F)[C@H]1CCCN(C(=O)c2cc(C3CC3)n[nH]2)C1 [CBK284330],110.892%

# A run of entries from the list above, as a working copy:
row,SMILES,% of control remaining
3,Cc1nc(C)c(CCC(=O)N2CCCCC2Cn2cccn2)c(=O)[nH]1 (centres unmarked) [CBK305310],135.28%
4,CC1(C)CC(=O)c2sc(NC(=O)c3ccc(Oc4ccccc4)cc3)nc2C1 [CBK144106],95.99%
5,COc1ccc(Nc2nc(N)nc(CN3CC(C)CC(C)C3)n2)cc1 (centres unmarked) [CBK288154],100.905%
6,Cc1cc(OCCCNCCO)ccc1Cl [CBK262230],119.652%

# Next part

row,SMILES,% of control remaining
1,O=S(=O)(Nc1nnn[nH]1)c1ccccc1Br [CBK062386],110.568%
2,O=C1CCCC[C@]2(CN(Cc3ccccc3)C[C@H]2c2ccccn2)N1 [CBK283340],133.667%
3,CCn1c(=O)oc2cc(NC(=O)NCCN3CCCCC3CO)ccc21 (centres unmarked) [CBK306565],99.8287%
4,CSCc1ccc(C(=O)Nc2cc(C(=O)O)ccc2C)cc1 [CBK297107],125.888%
5,CC12CCC(C(=O)N(CC(O)Cn3c4ccc(Br)cc4c4cc(Br)ccc43)C1=O)C2(C)C (centres unmarked) [CBK262449],125.333%
6,CCc1nc2ccc(C(=O)N3CCCCC3)cn2c1N(C)C(=O)c1cccc(OC)c1 [CBK146392],124.095%
7,Cc1cc(C2CCCCCN2C(=O)c2cccc(F)c2)on1 (centres unmarked) [CBK285448],121.593%
8,CS(=O)(=O)N1CC2(CCN(CCCCC3NC(=O)NC3=O)CC2)c2ccccc21 (centres unmarked) [CBK126684],111.908%
9,Cc1nc2c(c(=O)[nH]1)CC[C@@H]1CN(C(=O)CCc3ccccc3)C[C@H]21 [CBK284414],105.846%
10,CC(C)(C)c1ccc(OCC(=O)Nc2ccc(OCC(=O)O)cc2)cc1 [CBK287013],107.739%
11,Cc1cc(NC(=O)C2CCCC2)nc2c1c(=O)oc1ccccc12 [CBK287438],141.547%
12,CCC1CCCCN1C(=O)Cc1c(C)nc(-c2cccnc2)[nH]c1=O (centres unmarked) [CBK306240],143.232%
13,CC(C)NC(=O)c1ccc(-n2cccn2)c(C#Cc2cccnc2)c1 [CBK284523],159.206%
14,Nc1ncc(-c2cccc(-c3ccccc3)c2)nc1N1CCN(CCO)CC1 [CBK063410],136.843%
15,COC(=O)c1c(NC(=O)CSc2nnc3ccccn23)sc(C)c1C [CBK265943],123.338%
16,c1cnn(CC2CCCN2c2ncnc3sc4c(c23)CCNC4)c1 (centres unmarked) [CBK307490],126.639%
17,NC(=O)c1ccc(-c2cnc3[nH]c(=O)n(CCCN4CCOCC4)c3n2)cc1 [CBK065092],184.62%
18,Cc1nc(-c2ccccc2)sc1CNC(=O)CCC(F)(F)F [CBK092365],116.722%
19,Cc1cc(NCc2ccccc2)nc2[nH]nc(N)c12 [CBK287931],123.503%
20,Cc1ccc([N+](=O)[O-])cc1S(=O)(=O)n1ccc2c(N3CCNCC3)nccc21 [CBK059068C],132.706%
21,CCCCC1C(=O)N(C)CCN1C(=O)c1cc(C)c(CC)n(C)c1=O (centres unmarked) [CBK306527],120.479%
22,NNC(=O)CN(CCc1ccccc1)S(=O)(=O)c1ccc(Cl)cc1 [CBK263754],130.775%
23,Cc1ccc(S(=O)(=O)NCC(=O)Nc2ccc(Cl)cn2)cc1 [CBK091357],98.2716%
24,COc1ccc(S(=O)(=O)N2Cc3ccccc3CC2C(=O)Nc2ccc(O)cc2)cc1OC (centres unmarked) [CBK293967],126.976%
25,Cc1cc(C(=O)N2CCC(C(=O)NC(c3ccccc3)c3ccc4ccccc4n3)CC2)no1 (centres unmarked) [CBK059641],103.136%
26,COc1cccc(CN2C(=O)CC3(C2=O)C(=O)N(Cc2ccc4ccccc4n2)c2ccccc23)c1 (centres unmarked) [CBK076016],98.0451%

row,SMILES,% of control remaining
1,Cc1noc(-c2ccccc2)c1CN1CCCN(S(=O)(=O)c2ccc(C(F)(F)F)cc2Cl)CC1 [CBK063104],73.1801%
2,O=C(O)c1nccnc1C(=O)N1CCN(c2ccc(Cl)cc2)CC1 [CBK286826],124.334%
3,O=C(CC1NC(=O)NC1=O)Nc1cccc2ccccc12 (centres unmarked) [CBK267164],172.742%
4,COc1cc(-c2cnc(N)c(N3CCN(CCN(C)C)CC3)n2)cc(OC)c1OC [CBK063488],133.333%
5,Cc1nn2c(C)c(C(=O)Nc3ccccc3)nnc2c1-c1ccccc1 [CBK270198],161.162%
6,COc1ccc(-c2cc(C(=O)Nc3ccc(OC(F)(F)F)cc3)cnc2-c2ccccc2)cn1 [CBK036621],109.459%
7,Cc1cc2c(s1)c1cnn(Cc3ccccn3)c(=O)c1n2C [CBK284227],183.569%
8,Cc1nn(C)cc1C(=O)N1CCCC1c1nc2ccccc2[nH]1 (centres unmarked) [CBK282371],128.492%
9,O=c1[nH]c2ncc(-c3ccsc3)nc2n1CCCO [CBK065044],93.2496%
10,O=C(Nc1nc2ccccc2[nH]1)c1cccc(N2CCCS2(=O)=O)c1 [CBK304584],137.434%
11,CC1=C[C@@H](CO)[C@H](C(C)C)C[C@H]1Cc1nnc(-c2ccncc2)o1 [CBK289222],104.146%
12,Cc1ccc(CNC(=O)CCC(=O)O)cc1 [CBK058951],111.466%
13,COC(=O)c1cc(S(=O)(=O)N2c3ccccc3CC2C)cn1C (centres unmarked) [CBK304384],108.072%
14,CC(C)C[C@H](NC(=O)COc1ccc2nc3n(c(=O)c2c1)CCCCC3)C(=O)O [CBK286656],125.392%
15,Nc1nc(CSc2nnc(Cc3ccc([N+](=O)[O-])cc3)n2-c2ccccc2)cs1 [CBK267408],140.784%
16,Cc1cc2oc(C(=O)Nc3sc4c(c3C(=O)NC3CCS(=O)(=O)C3)CCC(C)C4)c(C)c2cc1C (centres unmarked) [CBK266351],222.37%
17,Cc1nc(CN2CCN(c3cccc(C(F)(F)F)n3)CC2)cs1 [CBK304709],110.873%
18,C/C(=N/NC(N)=S)c1ccccc1OCC(=O)O [CBK007123],66.8667%
19,CN(C)c1ccc(-c2nc(C(F)(F)F)nn2C)cn1 [CBK307202],157.321%
20,Cn1ccnc1C1(O)CCN(C(=O)c2ccccc2F)CC1 [CBK283536],79.8051%
21,CCNC(=O)N1CC2(CCN(Cc3nc4ccccc4[nH]3)CC2)c2ccccc21 [CBK126693],48.6187%
22,COc1ccc(OCC(=O)Nc2ccc(CN3CCOCC3)cc2)cc1 [CBK269686],97.7786%
23,Cc1ccc(-n2ncc3c(Nc4c(C)n(C)n(-c5ccccc5)c4=O)ncnc32)c(C)c1 [CBK294449],160.453%
24,C[C@H](Nc1cncc(-c2cccc3ccccc23)n1)c1ccccc1 [CBK065654],139.879%
25,CC(=O)NC(CC(=O)N1CCc2sccc2C1c1ccccc1)c1ccc(F)cc1 (centres unmarked) [CBK285548],75.8187%
